Laboratory results taken from PMC3040744.
No constants are given. Whether binding was seen depends on the method and setting. Binding seen in cells or lysates may run through a third protein. Binding can be weak; no strength is given. Sequences can lack the tags named with a protein.

Target: Flag-tagged hCdc14B catalytically inactive mutant (fl-hCdc14B^SL) (human)
Assay: co-IP; cells co-transfected with expression plasmids, 10 µM MG132 for 6 h, lysed in buffer AM-120 with 0.5% NP-40, 10% glycerol, DNase I, RNase A; precipitated with anti-Flag (M2)-agarose; immunoblots

| binding | Binder |
| --- | --- |
| binds | HA-Cdc25B (enzyme, UniProt P30305 1-580) MEVPQPEPAPGSALSPAGVCGGAQRPGHLPGLLLGSHGLLGSPVRAAASSPVTTLTQTMHDLAGLGSETPKSQVGTLLFRSRSRLTHLSLSRRASESSLSSESSESSDAGLCMDSPSPMDPHMAEQTFEQAIQAASRIIRNEQFAIRRFQSMPVRLLGHSPVLRNITNSQAPDGRRKSEAGSGAASSSGEDKENDGFVFKMPWKPTHPSSTHALAEWASRREAFAQRPSSAPDLMCLSPDRKMEVEELSPLALGRFSLTPAEGDTEEDDGFVDILESDLKDDDAVPPGMESLISAPLVKTLEKEEEKDLVMYSKCQRLFRSPSMPCSVIRPILKRLERPQDRDTPVQNKRRRSVTPPEEQQEAEEPKARVLRSKSLCHDEIENLLDSDHRELIGDYSKAFLLQTVDGKHQDLKYISPETMVALLTGKFSNIVDKFVIVDCRYPYEYEGGHIKTAVNLPLERDAESFLLKSPIAPCSLDKRVILIFHCEFSSERGPRMCRFIRERDRAVNDYPSLYYPEMYILKGGYKEFFPQHPNFCEPQDYRPMNHEAFKDELKTFRLKTRSWAGERSRRELCSRLQDQ |
| binds | GFP-Cdc25C (enzyme, UniProt P30307 1-473) MSTELFSSTREEGSSGSGPSFRSNQRKMLNLLLERDTSFTVCPDVPRTPVGKFLGDSANLSILSGGTPKRCLDLSNLSSGEITATQLTTSADLDETGHLDSSGLQEVHLAGMNHDQHLMKCSPAQLLCSTPNGLDRGHRKRDAMCSSSANKENDNGNLVDSEMKYLGSPITTVPKLDKNPNLGEDQAEEISDELMEFSLKDQEAKVSRSGLYRSPSMPENLNRPRLKQVEKFKDNTIPDKVKKKYFSGQGKLRKGLCLKKTVSLCDITITQMLEEDSNQGHLIGDFSKVCALPTVSGKHQDLKYVNPETVAALLSGKFQGLIEKFYVIDCRYPYEYLGGHIQGALNLYSQEELFNFFLKKPIVPLDTQKRIIIVFHCEFSSERGPRMCRCLREEDRSLNQYPALYYPELYILKGGYRDFFPEYMELCEPQSYCPMHHQDHKTELLRCRSQSKVQEGERQLREQIALLVKDMSP |
| binds | HA-Cdc25A (enzyme, UniProt P30304 1-524) MELGPEPPHRRRLLFACSPPPASQPVVKALFGASAAGGLSPVTNLTVTMDQLQGLGSDYEQPLEVKNNSNLQRMGSSESTDSGFCLDSPGPLDSKENLENPMRRIHSLPQKLLGCSPALKRSHSDSLDHDIFQLIDPDENKENEAFEFKKPVRPVSRGCLHSHGLQEGKDLFTQRQNSAPARMLSSNERDSSEPGNFIPLFTPQSPVTATLSDEDDGFVDLLDGENLKNEEETPSCMASLWTAPLVMRTTNLDNRCKLFDSPSLCSSSTRSVLKRPERSQEESPPGSTKRRKSMSGASPKESTNPEKAHETLHQSLSLASSPKGTIENILDNDPRDLIGDFSKGYLFHTVAGKHQDLKYISPEIMASVLNGKFANLIKEFVIIDCRYPYEYEGGHIKGAVNLHMEEEVEDFLLKKPIVPTDGKRVIVVFHCEFSSERGPRMCRYVRERDRLGNEYPKLHYPELYVLKGGYKEFFMKCQSYCEPPSYRPMHHEDFKEDLKKFRTKSRTWAGEKSKREMYSRLKKL |
